# Measurements reported in the supplement of paper PMC6411743.
# Sequences of proteins named here, by UniProt entry; tags and fusion partners are left off. A change or cut given only in a name is not applied to a line headed by its entry.
# UniProt Q5QJ74: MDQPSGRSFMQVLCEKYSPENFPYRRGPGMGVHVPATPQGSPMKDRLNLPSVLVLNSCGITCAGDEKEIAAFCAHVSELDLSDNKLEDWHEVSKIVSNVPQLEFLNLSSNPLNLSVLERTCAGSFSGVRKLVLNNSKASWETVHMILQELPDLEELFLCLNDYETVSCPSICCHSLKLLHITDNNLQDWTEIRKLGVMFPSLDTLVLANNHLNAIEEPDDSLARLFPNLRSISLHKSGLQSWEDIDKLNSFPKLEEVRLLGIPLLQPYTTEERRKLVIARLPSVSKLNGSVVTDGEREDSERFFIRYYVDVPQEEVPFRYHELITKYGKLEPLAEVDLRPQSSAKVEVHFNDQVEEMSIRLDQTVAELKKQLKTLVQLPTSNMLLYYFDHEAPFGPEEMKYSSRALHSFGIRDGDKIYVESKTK
# UniProt Q53S33: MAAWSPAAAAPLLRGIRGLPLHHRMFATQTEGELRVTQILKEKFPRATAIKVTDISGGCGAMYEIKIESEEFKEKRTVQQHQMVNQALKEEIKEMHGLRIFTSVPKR
# UniProt Q6P1R4: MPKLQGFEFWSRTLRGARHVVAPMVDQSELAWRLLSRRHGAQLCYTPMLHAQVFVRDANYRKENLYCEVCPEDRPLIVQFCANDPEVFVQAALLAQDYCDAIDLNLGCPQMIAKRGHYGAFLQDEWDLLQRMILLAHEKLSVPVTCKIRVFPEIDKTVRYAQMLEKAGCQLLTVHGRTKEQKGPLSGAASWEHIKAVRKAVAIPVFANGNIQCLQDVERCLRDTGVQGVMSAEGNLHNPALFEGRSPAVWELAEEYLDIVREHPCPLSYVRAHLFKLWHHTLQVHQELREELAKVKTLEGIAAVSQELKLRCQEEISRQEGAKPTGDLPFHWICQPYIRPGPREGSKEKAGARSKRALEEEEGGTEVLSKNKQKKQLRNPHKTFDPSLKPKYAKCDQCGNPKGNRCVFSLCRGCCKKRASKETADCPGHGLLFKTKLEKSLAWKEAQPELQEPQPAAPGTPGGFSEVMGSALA
# UniProt Q5VWN6: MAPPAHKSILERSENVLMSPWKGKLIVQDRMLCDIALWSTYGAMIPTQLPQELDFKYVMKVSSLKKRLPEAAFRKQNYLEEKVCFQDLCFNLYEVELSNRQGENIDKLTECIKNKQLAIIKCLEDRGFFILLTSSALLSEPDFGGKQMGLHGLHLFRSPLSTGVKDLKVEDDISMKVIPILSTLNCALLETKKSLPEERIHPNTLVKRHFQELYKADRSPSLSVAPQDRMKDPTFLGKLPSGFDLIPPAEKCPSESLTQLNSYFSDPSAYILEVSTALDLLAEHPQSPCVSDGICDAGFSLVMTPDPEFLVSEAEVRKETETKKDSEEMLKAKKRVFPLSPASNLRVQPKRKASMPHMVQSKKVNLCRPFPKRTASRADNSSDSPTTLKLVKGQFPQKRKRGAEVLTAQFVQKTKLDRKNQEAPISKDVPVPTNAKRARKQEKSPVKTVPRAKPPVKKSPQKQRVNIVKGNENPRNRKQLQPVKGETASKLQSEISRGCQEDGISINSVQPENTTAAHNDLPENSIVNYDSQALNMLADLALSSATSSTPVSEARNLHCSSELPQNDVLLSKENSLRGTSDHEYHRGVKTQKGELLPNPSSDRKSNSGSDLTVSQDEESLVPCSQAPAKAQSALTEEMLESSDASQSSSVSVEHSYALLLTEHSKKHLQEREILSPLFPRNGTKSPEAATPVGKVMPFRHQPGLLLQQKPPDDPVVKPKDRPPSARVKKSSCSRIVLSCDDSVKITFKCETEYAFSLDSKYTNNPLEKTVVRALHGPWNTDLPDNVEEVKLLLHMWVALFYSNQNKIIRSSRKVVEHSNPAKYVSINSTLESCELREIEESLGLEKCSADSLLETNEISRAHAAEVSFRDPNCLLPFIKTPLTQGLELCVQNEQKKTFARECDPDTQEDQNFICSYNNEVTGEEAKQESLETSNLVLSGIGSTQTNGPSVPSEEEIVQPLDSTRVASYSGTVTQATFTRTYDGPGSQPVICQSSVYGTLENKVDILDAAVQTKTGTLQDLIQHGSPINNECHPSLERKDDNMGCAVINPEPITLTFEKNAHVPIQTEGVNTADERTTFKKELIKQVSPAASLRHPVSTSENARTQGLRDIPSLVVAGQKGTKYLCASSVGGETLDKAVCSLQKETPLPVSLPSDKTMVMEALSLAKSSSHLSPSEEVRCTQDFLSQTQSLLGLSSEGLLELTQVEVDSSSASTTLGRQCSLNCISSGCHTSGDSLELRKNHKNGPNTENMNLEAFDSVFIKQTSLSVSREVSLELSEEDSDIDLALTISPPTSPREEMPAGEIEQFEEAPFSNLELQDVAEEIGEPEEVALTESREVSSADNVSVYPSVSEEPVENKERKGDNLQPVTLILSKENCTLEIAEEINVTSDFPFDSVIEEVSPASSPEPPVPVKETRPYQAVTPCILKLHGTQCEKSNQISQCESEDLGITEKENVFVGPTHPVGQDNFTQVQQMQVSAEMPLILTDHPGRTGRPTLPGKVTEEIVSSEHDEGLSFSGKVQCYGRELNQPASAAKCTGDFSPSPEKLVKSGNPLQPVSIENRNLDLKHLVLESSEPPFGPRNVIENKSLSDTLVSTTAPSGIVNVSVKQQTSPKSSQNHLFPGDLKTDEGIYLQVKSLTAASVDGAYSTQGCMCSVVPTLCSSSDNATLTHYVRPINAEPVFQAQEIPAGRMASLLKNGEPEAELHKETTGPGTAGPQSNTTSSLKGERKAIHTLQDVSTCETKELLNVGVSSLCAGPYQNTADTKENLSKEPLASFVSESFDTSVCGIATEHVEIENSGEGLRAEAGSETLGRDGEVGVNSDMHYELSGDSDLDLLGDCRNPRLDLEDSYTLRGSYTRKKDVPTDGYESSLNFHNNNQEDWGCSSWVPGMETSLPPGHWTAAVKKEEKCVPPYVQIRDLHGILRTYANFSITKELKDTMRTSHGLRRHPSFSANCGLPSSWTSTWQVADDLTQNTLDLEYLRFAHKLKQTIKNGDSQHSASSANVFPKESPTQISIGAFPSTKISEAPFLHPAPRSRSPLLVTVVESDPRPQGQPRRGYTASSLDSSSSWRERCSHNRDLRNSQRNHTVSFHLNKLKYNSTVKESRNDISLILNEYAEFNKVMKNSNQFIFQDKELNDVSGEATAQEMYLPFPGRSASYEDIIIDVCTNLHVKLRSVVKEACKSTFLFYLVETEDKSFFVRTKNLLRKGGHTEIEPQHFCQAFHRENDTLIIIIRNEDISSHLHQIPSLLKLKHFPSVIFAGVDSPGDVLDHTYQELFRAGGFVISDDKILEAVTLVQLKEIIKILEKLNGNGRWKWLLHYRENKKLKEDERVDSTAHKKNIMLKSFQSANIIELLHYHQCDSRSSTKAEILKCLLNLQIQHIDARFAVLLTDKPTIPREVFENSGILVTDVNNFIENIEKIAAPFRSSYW
# UniProt Q53H82: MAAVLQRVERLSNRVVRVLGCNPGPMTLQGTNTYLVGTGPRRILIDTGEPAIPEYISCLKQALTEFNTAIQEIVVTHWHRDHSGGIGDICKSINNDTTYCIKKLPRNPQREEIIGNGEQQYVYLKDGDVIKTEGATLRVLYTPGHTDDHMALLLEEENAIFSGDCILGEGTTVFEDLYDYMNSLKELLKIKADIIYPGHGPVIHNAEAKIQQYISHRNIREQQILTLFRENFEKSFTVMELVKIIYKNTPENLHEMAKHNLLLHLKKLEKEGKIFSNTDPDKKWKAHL
# UniProt Q6P6C2: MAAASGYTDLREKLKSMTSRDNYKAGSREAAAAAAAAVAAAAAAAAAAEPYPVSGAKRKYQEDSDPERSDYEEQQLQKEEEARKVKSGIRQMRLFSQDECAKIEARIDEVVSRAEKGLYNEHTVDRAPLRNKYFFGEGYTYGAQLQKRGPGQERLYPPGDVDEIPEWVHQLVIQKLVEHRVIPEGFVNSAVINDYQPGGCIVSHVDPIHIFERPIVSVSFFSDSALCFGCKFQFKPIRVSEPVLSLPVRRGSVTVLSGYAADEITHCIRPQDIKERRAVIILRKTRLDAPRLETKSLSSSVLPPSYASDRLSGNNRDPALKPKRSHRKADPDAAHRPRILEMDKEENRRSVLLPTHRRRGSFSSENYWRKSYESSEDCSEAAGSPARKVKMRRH
# UniProt Q5VT52: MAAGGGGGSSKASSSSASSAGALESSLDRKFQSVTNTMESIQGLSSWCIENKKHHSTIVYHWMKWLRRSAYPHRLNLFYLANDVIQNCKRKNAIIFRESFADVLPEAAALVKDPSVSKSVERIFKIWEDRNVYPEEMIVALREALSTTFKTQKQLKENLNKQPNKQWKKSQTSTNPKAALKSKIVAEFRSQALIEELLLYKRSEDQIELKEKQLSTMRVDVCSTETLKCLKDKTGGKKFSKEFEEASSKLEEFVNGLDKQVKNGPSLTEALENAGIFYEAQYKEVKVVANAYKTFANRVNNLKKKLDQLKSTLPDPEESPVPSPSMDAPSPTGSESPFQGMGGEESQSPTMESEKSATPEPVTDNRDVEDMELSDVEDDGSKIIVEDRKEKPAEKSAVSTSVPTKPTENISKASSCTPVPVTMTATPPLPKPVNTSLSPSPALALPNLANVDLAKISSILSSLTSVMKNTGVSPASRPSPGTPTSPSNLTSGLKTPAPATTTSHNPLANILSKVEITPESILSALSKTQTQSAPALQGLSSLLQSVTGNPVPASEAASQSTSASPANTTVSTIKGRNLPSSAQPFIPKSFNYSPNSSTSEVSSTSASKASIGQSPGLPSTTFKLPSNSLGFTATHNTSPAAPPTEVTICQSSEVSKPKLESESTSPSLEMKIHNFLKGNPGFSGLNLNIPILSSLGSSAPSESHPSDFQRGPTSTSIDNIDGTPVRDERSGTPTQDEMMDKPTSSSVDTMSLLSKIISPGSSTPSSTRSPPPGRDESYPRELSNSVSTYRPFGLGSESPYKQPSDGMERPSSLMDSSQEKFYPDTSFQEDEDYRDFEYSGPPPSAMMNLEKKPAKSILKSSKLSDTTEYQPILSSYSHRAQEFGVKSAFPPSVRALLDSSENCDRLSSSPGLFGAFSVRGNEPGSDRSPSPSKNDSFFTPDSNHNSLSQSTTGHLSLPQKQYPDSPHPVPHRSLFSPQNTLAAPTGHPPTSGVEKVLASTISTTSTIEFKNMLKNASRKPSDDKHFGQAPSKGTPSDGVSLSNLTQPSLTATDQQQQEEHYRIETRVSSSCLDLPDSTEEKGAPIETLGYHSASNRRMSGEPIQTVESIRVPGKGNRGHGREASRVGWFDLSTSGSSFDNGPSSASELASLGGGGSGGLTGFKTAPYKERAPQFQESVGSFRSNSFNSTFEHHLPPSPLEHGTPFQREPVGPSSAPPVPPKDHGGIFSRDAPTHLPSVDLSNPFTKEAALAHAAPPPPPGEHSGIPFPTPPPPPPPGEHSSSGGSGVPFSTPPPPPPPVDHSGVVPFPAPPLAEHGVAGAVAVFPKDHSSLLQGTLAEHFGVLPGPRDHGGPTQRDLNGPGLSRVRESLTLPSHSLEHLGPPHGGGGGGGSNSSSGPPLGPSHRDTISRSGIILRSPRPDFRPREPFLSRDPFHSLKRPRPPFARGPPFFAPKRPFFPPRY
# UniProt Q5VZM2, whole entry, looked up: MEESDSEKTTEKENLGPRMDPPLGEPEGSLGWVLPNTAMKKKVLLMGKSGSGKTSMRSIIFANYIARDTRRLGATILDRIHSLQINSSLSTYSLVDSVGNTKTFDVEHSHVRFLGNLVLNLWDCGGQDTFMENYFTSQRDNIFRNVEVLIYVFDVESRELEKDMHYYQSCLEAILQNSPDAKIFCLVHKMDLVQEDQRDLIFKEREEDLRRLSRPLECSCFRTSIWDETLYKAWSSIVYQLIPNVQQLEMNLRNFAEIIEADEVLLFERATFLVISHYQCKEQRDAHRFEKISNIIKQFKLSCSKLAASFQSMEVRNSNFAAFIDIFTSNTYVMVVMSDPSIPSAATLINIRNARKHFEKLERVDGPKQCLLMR
# UniProt Q69YI7: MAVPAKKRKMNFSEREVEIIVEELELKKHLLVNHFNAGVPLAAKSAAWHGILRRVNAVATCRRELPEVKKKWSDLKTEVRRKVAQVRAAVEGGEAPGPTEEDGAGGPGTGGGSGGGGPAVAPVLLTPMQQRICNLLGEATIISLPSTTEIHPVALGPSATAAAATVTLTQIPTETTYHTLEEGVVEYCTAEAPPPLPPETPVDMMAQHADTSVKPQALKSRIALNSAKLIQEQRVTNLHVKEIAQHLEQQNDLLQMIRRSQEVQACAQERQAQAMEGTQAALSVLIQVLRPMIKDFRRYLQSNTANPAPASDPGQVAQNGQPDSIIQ
# UniProt Q5JU69: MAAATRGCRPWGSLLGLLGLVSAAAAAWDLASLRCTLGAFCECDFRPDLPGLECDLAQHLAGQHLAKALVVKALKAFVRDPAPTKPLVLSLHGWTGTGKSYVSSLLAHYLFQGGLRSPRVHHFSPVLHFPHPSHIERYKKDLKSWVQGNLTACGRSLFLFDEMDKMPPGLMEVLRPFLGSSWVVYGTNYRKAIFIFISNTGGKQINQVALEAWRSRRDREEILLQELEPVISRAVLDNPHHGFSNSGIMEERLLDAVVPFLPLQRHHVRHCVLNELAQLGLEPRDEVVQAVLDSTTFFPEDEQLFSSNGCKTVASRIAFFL
# ± gives the standard deviation of the averaged measurements. The entries are a selection whose mix differs from that of the whole data set.
# Compound: Nc1ncnc2c1ncn2[C@@H]1O[C@H](COP(=O)(O)OP(=O)(O)OP(=O)(O)O)[C@@H](O)[C@H]1O [adenosine triphosphate]
# Assay: NP40-soluble protein abundance relative to vehicle (solubility fold change) (ratio); higher = more soluble protein in presence of ATP
# How it was run: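 Values are fold changes against the detergent-processed vehicle, based on vsn-normalised intensities. Jurkat crude lysate was treated at eight concentrations from 0.1 to 10 mM (10 min at room temperature, then 3 min at 37 °C), solubilised with 0.8% NP40 and benzonase, ultracentrifuged and analysed by TMT-labelled LC-MS/MS over three independent experiments.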
Target,NP40-soluble protein abundance (concentration: 1mM),NP40-soluble protein abundance (concentration: 2mM),NP40-soluble protein abundance (concentration: 4mM),NP40-soluble protein abundance (concentration: 6mM),NP40-soluble protein abundance (concentration: 8mM),NP40-soluble protein abundance (concentration: 10mM)
UniProt Q5VWP2,0.948 ± 0.17,1.05 ± 0.093,1.06 ± 0.033,1.01 ± 0.13,1.04 ± 0.056,1 ± 0.055
Q5T063 and related entries (UniProt Q9NZJ6),1.027 ± 0.0033,1.08 ± 0.089,1.06 ± 0.051,1.08 ± 0.066,1.06 ± 0.038,1 ± 0.08
SFXN4 (UniProt Q6P4A7),1.08 ± 0.083,0.976 ± 0.045,1.06 ± 0.059,1.04 ± 0.12,1.03 ± 0.02,0.988 ± 0.13
RPL7L1 (UniProt Q6DKI1),1.03 ± 0.095,1.05 ± 0.097,0.997 ± 0.076,1.02 ± 0.091,0.894 ± 0.049,1.03 ± 0.12
RNF123 (UniProt Q5XPI4),0.968 ± 0.048,0.9298 ± 0.004,0.914 ± 0.034,0.877 ± 0.028,0.969 ± 0.047,0.953 ± 0.023
SNRNP48 (UniProt Q6IEG0),1.22 ± 0.12,1.27 ± 0.15,1.35 ± 0.15,1.47 ± 0.22,1.44 ± 0.24,1.54 ± 0.2
HS1BP3 (UniProt Q53T59),1.05 ± 0.025,1.04 ± 0.035,1.06 ± 0.049,1.01 ± 0.017,1 ± 0.038,0.995 ± 0.063
BEND3 (UniProt Q5T5X7),0.998 ± 0.019,0.972 ± 0.037,0.999 ± 0.036,1.01 ± 0.015,1.003 ± 0.0084,0.997 ± 0.043
UniProt Q53F19,0.961 ± 0.029,1.02 ± 0.019,1.06 ± 0.013,1.17 ± 0.036,1.15 ± 0.022,1.2 ± 0.025
AGK (UniProt Q53H12),1.01 ± 0.12,1 ± 0.059,1.02 ± 0.054,0.983 ± 0.088,1.08 ± 0.032,1.09 ± 0.051
DCAF15 (UniProt Q66K64),1.1 ± 0.2,1.13 ± 0.22,1.11 ± 0.13,1.18 ± 0.21,1.01 ± 0.067,1.07 ± 0.15
CIAPIN1 (UniProt Q6FI81),0.955 ± 0.037,0.933 ± 0.032,0.922 ± 0.039,0.947 ± 0.038,0.905 ± 0.033,0.905 ± 0.018
UniProt Q6ICG6 and related entries,1.06 ± 0.077,0.994 ± 0.052,0.959 ± 0.017,0.973 ± 0.015,0.98 ± 0.074,1.03 ± 0.073
PHLDB3 (UniProt Q6NSJ2),1.06 ± 0.16,1.03 ± 0.1,1.05 ± 0.084,1.05 ± 0.11,1.04 ± 0.11,1.05 ± 0.05
TBCEL (UniProt Q5QJ74),1.08 ± 0.038,1.2 ± 0.23,1.09 ± 0.049,1.01 ± 0.12,0.984 ± 0.065,1.02 ± 0.099
ANKRD39 (UniProt Q53RE8),0.995 ± 0.047,0.9965 ± 0.007,1.02 ± 0.021,0.938 ± 0.038,0.97 ± 0.11,1 ± 0.024
UniProt Q5H8A4-5|Q5H8A4-6,0.952 ± 0.022,0.988 ± 0.012,0.943 ± 0.066,0.9801 ± 0.00087,0.946 ± 0.056,0.954 ± 0.021
PMF1 (UniProt Q6P1K2),1.02 ± 0.12,0.968 ± 0.046,1.02 ± 0.077,1.01 ± 0.096,0.973 ± 0.077,0.975 ± 0.093
CTR9 (UniProt Q6PD62),0.964 ± 0.058,0.947 ± 0.047,0.892 ± 0.019,0.846 ± 0.043,0.813 ± 0.034,0.708 ± 0.018
BOLA3 (UniProt Q53S33),1.11 ± 0.24,0.93 ± 0.077,1 ± 0.14,1.04 ± 0.12,0.93 ± 0.035,0.841 ± 0.061

# Reprinted at random: two records from the list.
Target,NP40-soluble protein abundance (concentration: 1mM),NP40-soluble protein abundance (concentration: 2mM),NP40-soluble protein abundance (concentration: 4mM),NP40-soluble protein abundance (concentration: 6mM),NP40-soluble protein abundance (concentration: 8mM),NP40-soluble protein abundance (concentration: 10mM)
BOLA3 (UniProt Q53S33),1.11 ± 0.24,0.93 ± 0.077,1 ± 0.14,1.04 ± 0.12,0.93 ± 0.035,0.841 ± 0.061
DCAF15 (UniProt Q66K64),1.1 ± 0.2,1.13 ± 0.22,1.11 ± 0.13,1.18 ± 0.21,1.01 ± 0.067,1.07 ± 0.15

# Later entries

Target,NP40-soluble protein abundance (concentration: 1mM),NP40-soluble protein abundance (concentration: 2mM),NP40-soluble protein abundance (concentration: 4mM),NP40-soluble protein abundance (concentration: 6mM),NP40-soluble protein abundance (concentration: 8mM),NP40-soluble protein abundance (concentration: 10mM)
TWF2 (UniProt Q6IBS0),1.02 ± 0.11,0.992 ± 0.055,0.95 ± 0.031,0.927 ± 0.075,0.978 ± 0.038,0.969 ± 0.039
UniProt Q6P1R4 and related entries,1.04 ± 0.033,1.02 ± 0.016,1.03 ± 0.016,1 ± 0.034,0.98 ± 0.023,0.999 ± 0.034
UniProt Q5T3J3,1.01 ± 0.034,1.13 ± 0.098,1.22 ± 0.051,1.28 ± 0.095,1.3 ± 0.045,1.31 ± 0.06
KLHL26 (UniProt Q53HC5),1.11 ± 0.04,1.26 ± 0.1,1.17 ± 0.05,1.08 ± 0.068,1.17 ± 0.044,1.17 ± 0.3
TP53I3 (UniProt Q53FA7),0.957 ± 0.026,0.944 ± 0.048,0.949 ± 0.014,0.92 ± 0.059,0.934 ± 0.025,0.95 ± 0.013
UniProt Q5R372 and related entries,1.01 ± 0.017,0.979 ± 0.015,1 ± 0.015,1.007 ± 0.0016,0.986 ± 0.019,0.982 ± 0.013
UniProt Q5VWN6,1.24 ± 0.051,1.22 ± 0.068,1.31 ± 0.1,1.25 ± 0.099,1.27 ± 0.12,1.27 ± 0.063
ZNF326 (UniProt Q5BKZ1),1.18 ± 0.089,1.17 ± 0.08,1.21 ± 0.12,1.29 ± 0.17,1.3 ± 0.1,1.35 ± 0.13
METTL2B (UniProt Q6P1Q9),1.01 ± 0.077,1 ± 0.02,1.03 ± 0.07,0.966 ± 0.032,1.009 ± 0.0058,0.961 ± 0.034
UniProt Q6GQQ9 and related entries,1.08 ± 0.041,1.08 ± 0.056,1.01 ± 0.072,1.08 ± 0.055,1.03 ± 0.099,0.934 ± 0.076
UniProt Q68E01-2|Q68E01,1.12 ± 0.22,1.06 ± 0.14,1.1 ± 0.14,1.09 ± 0.13,1.11 ± 0.14,1.12 ± 0.15
MYSM1 (UniProt Q5VVJ2),0.9711 ± 0.0075,0.979 ± 0.041,0.991 ± 0.037,0.958 ± 0.055,0.97 ± 0.061,0.943 ± 0.039
UniProt Q5VZL5 and related entries,1.12 ± 0.013,1.17 ± 0.019,1.22 ± 0.022,1.27 ± 0.058,1.39 ± 0.051,1.47 ± 0.054
UniProt Q6P996 and related entries,1.03 ± 0.029,1.01 ± 0.042,1 ± 0.045,0.986 ± 0.076,0.984 ± 0.053,0.986 ± 0.049
UniProt Q53TN4 and related entries,1.04 ± 0.16,1.05 ± 0.18,1.06 ± 0.087,1.15 ± 0.12,0.99 ± 0.16,1.07 ± 0.069
RFWD3 (UniProt Q6PCD5),1 ± 0.04,0.999 ± 0.06,1.04 ± 0.059,1 ± 0.061,1.07 ± 0.018,1.05 ± 0.043
UniProt Q6P1X5 and related entries,1.07 ± 0.071,1.08 ± 0.08,1.19 ± 0.03,1.06 ± 0.037,1.2 ± 0.076,1.186 ± 0.011
LACTB2 (UniProt Q53H82),1.01 ± 0.011,1 ± 0.039,0.979 ± 0.017,0.963 ± 0.068,1 ± 0.034,0.977 ± 0.039
TYW3 (UniProt Q6IPR3),0.96 ± 0.15,0.948 ± 0.16,0.973 ± 0.15,0.873 ± 0.16,0.921 ± 0.11,0.956 ± 0.12
ALKBH5 (UniProt Q6P6C2),1.23 ± 0.059,1.29 ± 0.072,1.31 ± 0.091,1.26 ± 0.17,1.37 ± 0.085,1.42 ± 0.087

Target,NP40-soluble protein abundance (concentration: 1mM),NP40-soluble protein abundance (concentration: 2mM),NP40-soluble protein abundance (concentration: 4mM),NP40-soluble protein abundance (concentration: 6mM),NP40-soluble protein abundance (concentration: 8mM),NP40-soluble protein abundance (concentration: 10mM)
RPRD2 (UniProt Q5VT52),1.04 ± 0.059,1.04 ± 0.042,1.05 ± 0.043,1.08 ± 0.058,1.04 ± 0.041,1.04 ± 0.02
Q5JVZ5 and related entries (UniProt Q96JJ3),1.07 ± 0.055,1.04 ± 0.047,1.02 ± 0.061,1.01 ± 0.057,1.03 ± 0.053,0.999 ± 0.04
UniProt Q52LJ0-2,1.02 ± 0.11,0.962 ± 0.016,0.945 ± 0.022,1 ± 0.031,0.9744 ± 0.0044,0.943 ± 0.029
NUP188 (UniProt Q5SRE5),1.06 ± 0.087,1.09 ± 0.084,1.15 ± 0.062,1.05 ± 0.087,1.24 ± 0.062,1.27 ± 0.045
UniProt Q5JSH3 and related entries,0.945 ± 0.036,0.961 ± 0.027,0.945 ± 0.016,0.957 ± 0.035,0.909 ± 0.016,0.938 ± 0.017
Q5TH30 and related entries (UniProt Q9UGV2),0.994 ± 0.071,0.995 ± 0.041,0.979 ± 0.02,0.987 ± 0.093,0.951 ± 0.048,0.978 ± 0.015
UniProt Q5MNZ6,1.02 ± 0.15,1.02 ± 0.13,1.02 ± 0.12,0.945 ± 0.12,1 ± 0.1,1.02 ± 0.16
ZMYM1 (UniProt Q5SVZ6),1.03 ± 0.055,1.02 ± 0.067,1.06 ± 0.053,1.06 ± 0.04,1.09 ± 0.039,1.1 ± 0.044
TAPT1 (UniProt Q6NXT6),0.996 ± 0.064,1.03 ± 0.054,0.983 ± 0.06,0.957 ± 0.085,0.998 ± 0.04,0.971 ± 0.063
UniProt Q562F6 and related entries,1.02 ± 0.074,1.04 ± 0.051,1.04 ± 0.061,1.06 ± 0.027,1.03 ± 0.068,1.05 ± 0.062
MRPL14 (UniProt Q6P1L8),1.03 ± 0.018,1.03 ± 0.069,0.95 ± 0.054,0.929 ± 0.063,0.973 ± 0.042,0.975 ± 0.064
Q5VZM2-2|Q7L523 (UniProt Q7L523+Q5VZM2),1.11 ± 0.18,1.07 ± 0.14,1.13 ± 0.17,1.06 ± 0.13,1.15 ± 0.13,1.05 ± 0.12
UniProt Q68DK2 and related entries,0.966 ± 0.078,0.999 ± 0.093,0.988 ± 0.065,0.927 ± 0.033,1.02 ± 0.042,1.06 ± 0.014
UniProt Q6NXE6 and related entries,0.923 ± 0.013,0.938 ± 0.024,0.909 ± 0.032,0.877 ± 0.025,0.905 ± 0.013,0.901 ± 0.028
NIPBL (UniProt Q6KC79),1.12 ± 0.023,1.121 ± 0.0094,1.158 ± 0.011,1.19 ± 0.007,1.184 ± 0.0095,1.188 ± 0.0065
UniProt Q5JTJ3 and related entries,1.25 ± 0.41,1.05 ± 0.017,0.946 ± 0.021,1.112 ± 0.0083,0.92 ± 0.022,0.958 ± 0.019
NAIF1 (UniProt Q69YI7),1.03 ± 0.11,1.02 ± 0.066,0.987 ± 0.076,1 ± 0.087,0.932 ± 0.11,0.965 ± 0.15
CNNM4 (UniProt Q6P4Q7),1.01 ± 0.11,1.01 ± 0.074,1.01 ± 0.071,1.04 ± 0.099,1 ± 0.048,1 ± 0.013
UniProt Q5T6F0,0.916 ± 0.099,0.941 ± 0.028,0.978 ± 0.092,0.931 ± 0.034,0.953 ± 0.068,1.01 ± 0.044
TOR2A (UniProt Q5JU69),0.883 ± 0.052,1.02 ± 0.035,0.949 ± 0.033,0.876 ± 0.074,0.896 ± 0.061,0.998 ± 0.038
